Article PMC3024417
No constants are given. Whether binding was seen depends on the method and setting. In cells and extracts the contact can be indirect.

Chains of the proteins cited; added tags and fusions are not shown.
UniProt P28482: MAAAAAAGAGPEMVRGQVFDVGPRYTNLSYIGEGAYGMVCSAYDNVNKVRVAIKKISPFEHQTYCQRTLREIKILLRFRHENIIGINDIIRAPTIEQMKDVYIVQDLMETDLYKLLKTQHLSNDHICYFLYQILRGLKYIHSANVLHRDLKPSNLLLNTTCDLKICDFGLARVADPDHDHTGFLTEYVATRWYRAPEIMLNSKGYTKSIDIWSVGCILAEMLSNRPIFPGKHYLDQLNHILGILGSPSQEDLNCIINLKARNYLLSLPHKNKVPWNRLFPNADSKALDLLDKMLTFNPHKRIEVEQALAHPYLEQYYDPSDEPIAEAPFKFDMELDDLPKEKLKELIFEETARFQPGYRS
UniProt Q05397: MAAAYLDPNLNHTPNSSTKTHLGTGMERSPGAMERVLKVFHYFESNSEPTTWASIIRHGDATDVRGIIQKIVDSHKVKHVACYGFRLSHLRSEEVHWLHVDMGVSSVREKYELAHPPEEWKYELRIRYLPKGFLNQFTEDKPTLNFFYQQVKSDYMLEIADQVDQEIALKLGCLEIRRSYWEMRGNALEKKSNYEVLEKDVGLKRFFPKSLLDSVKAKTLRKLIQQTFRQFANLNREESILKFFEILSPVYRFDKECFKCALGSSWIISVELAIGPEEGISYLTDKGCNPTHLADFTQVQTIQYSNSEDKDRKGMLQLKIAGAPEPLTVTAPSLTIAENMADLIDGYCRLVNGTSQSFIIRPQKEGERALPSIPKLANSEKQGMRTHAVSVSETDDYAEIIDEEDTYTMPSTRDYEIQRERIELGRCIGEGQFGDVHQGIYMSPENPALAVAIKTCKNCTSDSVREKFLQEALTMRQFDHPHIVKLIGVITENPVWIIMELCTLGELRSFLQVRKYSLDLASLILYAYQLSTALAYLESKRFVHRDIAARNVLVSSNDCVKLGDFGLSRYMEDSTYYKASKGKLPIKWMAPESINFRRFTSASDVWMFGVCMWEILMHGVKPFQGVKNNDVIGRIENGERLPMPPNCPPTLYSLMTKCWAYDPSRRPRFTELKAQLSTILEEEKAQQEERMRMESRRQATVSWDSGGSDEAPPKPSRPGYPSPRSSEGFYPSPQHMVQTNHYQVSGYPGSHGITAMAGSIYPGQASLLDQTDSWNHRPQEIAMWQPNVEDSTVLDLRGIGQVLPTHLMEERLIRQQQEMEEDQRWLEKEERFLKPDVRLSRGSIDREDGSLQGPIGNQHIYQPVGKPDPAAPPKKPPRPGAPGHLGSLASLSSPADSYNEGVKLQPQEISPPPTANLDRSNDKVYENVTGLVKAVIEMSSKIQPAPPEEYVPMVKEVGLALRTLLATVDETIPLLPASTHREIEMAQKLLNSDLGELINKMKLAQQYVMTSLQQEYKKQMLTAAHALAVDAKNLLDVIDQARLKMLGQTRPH
UniProt P27361: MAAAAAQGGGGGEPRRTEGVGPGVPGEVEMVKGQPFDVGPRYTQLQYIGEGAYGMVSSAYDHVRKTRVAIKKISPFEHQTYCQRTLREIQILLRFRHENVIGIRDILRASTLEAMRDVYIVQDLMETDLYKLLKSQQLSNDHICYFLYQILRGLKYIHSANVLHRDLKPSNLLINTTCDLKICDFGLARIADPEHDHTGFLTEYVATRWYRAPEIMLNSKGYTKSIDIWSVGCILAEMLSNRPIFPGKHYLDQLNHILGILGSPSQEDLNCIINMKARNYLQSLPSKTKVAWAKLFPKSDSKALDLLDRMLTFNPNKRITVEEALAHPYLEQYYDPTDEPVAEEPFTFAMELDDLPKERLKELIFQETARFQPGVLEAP

Molecular target: T1, p120-catenin (human (endogenous in A431)) (UniProt O60716)
T1 sequence: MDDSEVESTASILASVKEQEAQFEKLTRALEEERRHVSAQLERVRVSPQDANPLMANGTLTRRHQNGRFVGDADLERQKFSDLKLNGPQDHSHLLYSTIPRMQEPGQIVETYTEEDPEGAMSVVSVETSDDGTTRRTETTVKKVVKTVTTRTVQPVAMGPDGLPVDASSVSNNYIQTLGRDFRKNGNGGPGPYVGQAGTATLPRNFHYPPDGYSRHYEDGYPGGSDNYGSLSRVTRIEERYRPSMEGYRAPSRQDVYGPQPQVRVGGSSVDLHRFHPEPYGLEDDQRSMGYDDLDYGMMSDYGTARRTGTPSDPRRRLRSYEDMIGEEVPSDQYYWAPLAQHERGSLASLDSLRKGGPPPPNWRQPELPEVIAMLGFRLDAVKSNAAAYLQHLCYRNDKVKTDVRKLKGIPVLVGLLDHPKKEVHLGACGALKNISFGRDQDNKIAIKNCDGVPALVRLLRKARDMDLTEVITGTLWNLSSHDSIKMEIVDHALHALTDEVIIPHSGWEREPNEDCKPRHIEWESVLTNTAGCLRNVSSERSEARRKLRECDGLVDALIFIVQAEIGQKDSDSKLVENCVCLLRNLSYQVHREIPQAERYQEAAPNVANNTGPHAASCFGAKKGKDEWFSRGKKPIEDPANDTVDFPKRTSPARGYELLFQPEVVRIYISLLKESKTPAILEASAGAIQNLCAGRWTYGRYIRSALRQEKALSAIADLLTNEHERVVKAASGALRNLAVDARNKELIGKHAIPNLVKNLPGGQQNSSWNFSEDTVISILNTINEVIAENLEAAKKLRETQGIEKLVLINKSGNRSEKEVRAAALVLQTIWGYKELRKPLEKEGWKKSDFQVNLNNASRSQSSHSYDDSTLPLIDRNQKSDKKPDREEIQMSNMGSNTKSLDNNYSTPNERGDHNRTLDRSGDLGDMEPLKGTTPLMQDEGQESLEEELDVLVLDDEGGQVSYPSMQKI
Assay: cross-linking + co-IP; A431 cells crosslinked in the cell with 0.5 mM DSP or 0.5 mM DTME (30 min, room temperature, PBS pH 7.4), lysed in RIPA buffer; p120 immunoprecipitated with mAb 15D2, eluted in reducing LSB; Western blot

binding | Substance
no binding | p42 MAPK (from UniProt P28482 1-360)
no binding | Focal Adhesion Kinase (from UniProt Q05397 1-1052)
no binding | p44 MAPK (from UniProt P27361 1-379)
